# Screening data, single-dose tests

T. brucei: 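Whole-parasite assay of Trypanosoma brucei over 72 hours; the read-out is not stated. Concentration: 30 µM. Higher reads as stronger inhibition (inferred: compounds with an IC50 in retests scored well above the rest). Values scatter widely below zero; nearly all retest evidence comes from the higher of the two concentrations used. Of about 64,000 compounds tested this way, about 940 (1.5%) reached 50% or more in at least one test.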
Toxoplasma: 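Assay of Toxoplasma gondii numbers, read through their beta-galactosidase reporter with a colour substrate. Concentration: 10 µM. The record gives no direction; the compounds picked for IC50 retests had high values, so higher reads as fewer parasites. About 67,000 compounds were tested under these conditions; 0.38% (about 260) showed 50% or more at least once.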

The filed quantity is “Percent Effect” (%). How 0% and 100% were set is not recorded. Most values in the screen are low, and negative values occur. This is an unselected part of the compounds tested. A dash means the value is not listed here; it may have been measured.

compound	T. brucei	Toxoplasma
COc1ccc(CN2CCc3nnc(COCCN(C)C)n3CC2)cc1.O=C(O)C(F)(F)F.O=C(O)C(F)(F)F	-2.661%	7.564%
Cc1nc(C)n(CC2CCCN2Cc2nc(-c3ccccn3)no2)n1 (stereo not shown)	-5.977%	2.267%
CCn1nccc1CNC(=O)CCC1CCCC1	-	-17.89%
O=C(O)C(F)(F)F.c1ccc(OC2COC3(CCN(Cc4ccccn4)CC3)C2)cc1 (stereo not shown)	-26.52%	6.78%
CNC(=O)CN(C)CC1(c2ccc(Br)cc2)CC1	-22.69%	12.55%
CCn1nc(C)c(CCNC(=O)C2CCCN(CC(N)=O)C2)c1C (stereo not shown)	10.84%	6.066%
O=C(O)C1(Cc2cc(-c3ccc(F)cc3F)no2)CCOCC1	-38.15%	21.72%
CNC(=O)[C@@H](c1ccccc1)N1CCC[C@H]1C(=O)NCc1cccnc1.Cl.Cl	-16.87%	1.931%
CN1CCN(S(=O)(=O)c2ccc(C(=O)N3CC[C@@H](O)C3)cc2)CC1=O	7.797%	12.34%
CCOc1ccnc(N2CCN(C(=O)c3ccoc3C)CC2)n1	-	-3.824%
O=C(NCCc1cccnc1)c1nc2c(s1)CCCN2C(=O)C1CC1.O=C(O)C(F)(F)F	-77.11%	3.96%
Cc1csc(CNCC(C)c2nc3ccccc3o2)n1 (stereo not shown)	3.385%	0.5682%
CCN(CC)C(=O)C1CCN(C(=O)Nc2cccnc2OC)CC1	-17.25%	-6.652%
Cc1ccc(CN2Cc3nccn3CC(Cn3cncn3)C2)s1.O=C(O)C(F)(F)F (stereo not shown)	-39.42%	-6.364%
Cc1cnn(CC2CCCN2c2nn3cc(C)nc3s2)c1 (stereo not shown)	22.72%	4.668%
COc1cccc(OCC(=O)NS(=O)(=O)c2cccnc2)c1	-	-4.516%
CC(C)N1CCOCC2(CN(Cc3nccs3)CCO2)C1.O=C(O)C(F)(F)F.O=C(O)C(F)(F)F (stereo not shown)	-2.721%	2.993%
O=C(O)C(F)(F)F.O=C1CC2(CCN(CC3CCOC3)CC2)c2ccccc2N1CC1CC1 (stereo not shown)	-4.569%	-2.7%
CCC(C)(CC(=O)OC)NCc1cc(C)on1 (stereo not shown)	-75.79%	40.96%
CC(O)CNC(=O)c1nc(Cc2c(Cl)cccc2Cl)no1 (stereo not shown)	10.26%	5.471%
CCN1CC(c2ccccc2)CC2(CCN(Cc3ncc[nH]3)CC2)C1 (stereo not shown)	-104%	20.1%
O=C(O)C(F)(F)F.[H][C@]12CCN(c3ccc(C)nn3)C[C@@]1([H])CN(Cc1cc[nH]n1)C2	-11.9%	6.579%
c1ccc(-c2n[nH]c(CCNc3nnc(C4CCC4)o3)n2)cc1	99.86%	-26.48%
O=C(NCCSC1CCCC1)c1c(F)cccc1F	-26.28%	20.8%
Cc1ccc(C(O)CNC(=O)NCc2csc(C)n2)cc1 (stereo not shown)	-15.87%	-2.585%
CC(C)C(=O)NC1CCN(c2cccc(OC(F)(F)F)c2)C1=O (stereo not shown)	12.83%	6.047%
CNc1cc(C)nc(C2COCCN2CCc2ccccc2)n1 (stereo not shown)	3%	-2.438%
Cc1cc(CN(C)C(=O)NC2CCS(=O)(=O)C2)no1 (stereo not shown)	-2.773%	-17.9%
Cn1cc(-c2nnn3c2COC(CNCc2ccccn2)C3)cn1 (stereo not shown)	-17.66%	0.7476%
N#CCCN(CC1CCOC1)Cn1ccc(-c2ccccc2)n1 (stereo not shown)	-34.91%	-13.9%
Cc1cnn(CC2CN(CC(=O)N(C)Cc3ccsc3)CCO2)c1 (stereo not shown)	-	-0.7679%
COCC(=O)NC(C)Cc1cccc(Cl)c1 (stereo not shown)	10.06%	3.484%
CCC(O)CN1CCN(C(=O)C2(c3ccc(C)c(OC)c3)CC2)CC1 (stereo not shown)	-35.59%	-12.82%
COC(=O)Cn1cccc(S(=O)(=O)N2CCC(C)CC2)c1=O	-3.813%	2.032%
Cc1nn(CCC(=O)N2CCCC(OCc3cccnc3)C2)c(C)c1C (stereo not shown)	-4.111%	12.39%
O=C(CN1C(=O)CCC1=O)N1Cc2cncnc2C1	12.94%	7.207%
CCCc1nc(C)cc(N2CCC3(CCC(=O)N(CC(N)=O)C3)CC2)n1	-8.835%	-5.623%
COc1ccc2c(c1)OC1(CCN(Cc3ccc(F)cc3)CC1)CC2=O	-27.05%	5.808%
O=C(O)C(F)(F)F.[H][C@@]12CN(CC3CCOC3)CCC[C@]1(C(=O)O)CN(c1ncccn1)C2 (stereo partly shown)	-92.21%	-8.128%
O=C(O)C(F)(F)F.[H][C@]12CCC[C@@]1(COCc1ccncc1)CN(C(=O)c1occc1C)C2	58.51%	-8.98%
CN(C)c1ccc(C(=O)N(CCO)CC2CC2)c(F)c1	-44.74%	4.019%
Cc1cc(C(=O)N2CCCC(n3ccnc3)C2)c(C)n1C1CC1 (stereo not shown)	-	-0.8347%
Cc1cc(C(=O)N2CCN(c3nc4ccccc4s3)CC2)no1	-19.4%	5.487%
CC1CCCCN1CCNC(=O)c1ccccc1N1CCOCC1 (stereo not shown)	-45.79%	13.01%
CN(C)c1nc2c(c(N3CCC4(CCCNC4=O)C3)n1)CCCC2 (stereo not shown)	-19.44%	8.471%
c1ncn(Cc2nnc(C3CCN(CC4CC4)CC3)n2C2CC2)n1	-9.528%	1.187%
Cc1cc(C)nc(NCCCC(=O)NCCn2ccc3ccccc32)n1	-9.664%	18.58%
Cc1csc(CNCC2CCCN(C(=O)OC(C)(C)C)C2)n1 (stereo not shown)	-28.53%	-4.981%
Cc1nc(CN(Cc2ccc3c(c2)OCCO3)C2CCCC2)no1	-	15.63%
CC(C)c1nccn1-c1cccc(C2CCCN2S(=O)(=O)N(C)C)n1 (stereo not shown)	4.678%	-2.929%
Cc1cccnc1CN(C)C(C(=O)O)c1ccc(-c2ccn[nH]2)cc1 (stereo not shown)	23.68%	17.14%
c1cncc(NCCNC2CCSCC2)c1	-35.86%	-19.34%
O=C1CCC(C(=O)N2CCOC(Cc3cccc4ccccc34)C2)=NN1 (stereo not shown)	-7.623%	2.163%
[H][C@]12CC[C@]([H])(CN(Cc3ccncc3)C1)N(C(=O)CSc1ncccn1)C2	-65.12%	-0.8758%
c1ccc2c(N3CCCCC3)cnnc2c1	-36.01%	-58.46%
Brc1ccc(NCc2ccc(Cn3ccnc3)cc2)nc1	3.824%	39.99%
Cc1nn(C)c(N(C)C)c1CNCc1ccccc1Cn1cccn1	-3.227%	8.961%
COc1cc(C(=O)O)ccc1OCC(=O)NCCc1ccccc1	-6.052%	12.99%
COc1ncccc1CN1CCn2c(C(=O)N3CCCC3)cnc2C1.O=C(O)C(F)(F)F.O=C(O)C(F)(F)F	-23.97%	7.83%
O=C(O)C(F)(F)F.O=C(O)C(F)(F)F.[H][C@@]12CCCO[C@]1([H])[C@H](N1CCCC1)CN(C(=O)c1ccc(C)nc1)C2	-22.17%	-0.126%
CCn1cc(CNC(=O)C(C)C)cn1	-23.83%	-21.3%
Cc1cc(CN2CCC(C3CCN(CCc4ccccc4)CC3)C2)[nH]n1 (stereo not shown)	-39.04%	19.89%
COc1ccc(N(Cc2ccco2)C(=O)COC(C)C)cc1F	-37.46%	13.34%
COc1cccc(N2CCC(CNC(=O)N(C)Cc3ccco3)C2)c1 (stereo not shown)	8.792%	2.841%
Cn1c(N2CCOCC2)nc2cc(C(=O)N3CCC(O)(CO)C3)ccc21 (stereo not shown)	-17.08%	-15.1%
CCS(=O)(=O)N1CCc2c(CN3CCOCC3)cncc2C1.Cl.Cl	-39.83%	22.22%
Cl.Cn1nc(C2CCN(C(=O)Cc3cccc(F)c3)CC2)c2cccnc21	22.18%	17.75%
CCOCCn1c(=O)n(Cc2ccc(F)cc2)c2ncc(C(=O)O)cc21	-0.4017%	4.588%
NCCn1nc(C2CCN(C(=O)Cc3ccccc3)C2)c2nccnc21 (stereo not shown)	13.6%	0.6786%
Cc1nc(N)cc(C2CN(C(=O)c3ccn(C)n3)CCO2)n1 (stereo not shown)	10.57%	16.98%
O=C1CCCC2=C1C(c1cccc(F)c1F)Nc1nonc1N2 (stereo not shown)	-	-12.91%
CCn1ccnc1CN1CCCN(C(=O)c2cccn2C)CC1	-12.06%	19.62%
Cc1n[nH]cc1CNC(=O)CCCc1cccs1	4.252%	7.081%
Cc1nn(C)c(C)c1C1CCCN1c1ncnc2sccc12 (stereo not shown)	27.85%	17.91%
Cc1nn(C)c2c(=O)n(CC(=O)Nc3cc(Cl)cc(Cl)c3)nnc12	63.83%	-3.347%

6 of the entries, repeated:

Cc1cccnc1CN(C)C(C(=O)O)c1ccc(-c2ccn[nH]2)cc1 (stereo not shown) read T. brucei: 23.68%; Toxoplasma: 17.14%.
CCN(CC)C(=O)C1CCN(C(=O)Nc2cccnc2OC)CC1 read T. brucei: -17.25%; Toxoplasma: -6.652%.
Cc1cc(CN(C)C(=O)NC2CCS(=O)(=O)C2)no1 (stereo not shown) read T. brucei: -2.773%; Toxoplasma: -17.9%.
CN(C)c1nc2c(c(N3CCC4(CCCNC4=O)C3)n1)CCCC2 (stereo not shown) read T. brucei: -19.44%; Toxoplasma: 8.471%.
COc1ccc(CN2CCc3nnc(COCCN(C)C)n3CC2)cc1.O=C(O)C(F)(F)F.O=C(O)C(F)(F)F read T. brucei: -2.661%; Toxoplasma: 7.564%.
O=C(O)C1(Cc2cc(-c3ccc(F)cc3F)no2)CCOCC1 read T. brucei: -38.15%; Toxoplasma: 21.72%.

Data taken from ChEMBL document CHEMBL3988442, “University of Dundee, Small-Polar-MMV Screening Library” (2021).